Source: patent US12024584B2, “Methods and compositions for polyurethane dispersions using caprolactam-derived solvents” (AdvanSix Resins & Chemicals LLC, priority 2017, dated 2024)

Assay: Film formation in severe conditions (4° C.)
Format: physicochemical
Details: tin plated steel, humid thickness 200 μm

Structure (SMILES) | Film Formation at 4° C.: Observation | further results
CCCCN1CCCC1=O [NBP, N-butyl pyrrolidone, reference compound] | OK (no cracks) | 
CCN1CCCCCC1=O [N—EtCPL, N-ethyl caprolactam] |  | Film Formation at 4° C.: Observation (listed as N-ethyl CPL): no cracks detected; Film Formation at 4° C.: Observation (listed as N-ethyl CPL (NE CPL)): OK (no cracks)
CN1CCCC1=O [NMP, N-methyl pyrrolidone, reference compound] | micro cracks | 
CN1CCCCCC1=O [N—MeCPL, N-methyl caprolactam] |  | Film Formation at 4° C.: Observation (listed as N-methyl CPL): no cracks detected; Film Formation at 4° C.: Observation (listed as N-methyl CPL (NM CPL)): OK (no cracks)
COC(=O)CCCCC(=O)N(C)C [Ester amide, Hexanoic acid, 6-(dimethylamino)-6-oxo, methyl ester] | general cracks | 
CCCCN1CCCCCC1=O [N—BuCPL, N-butyl caprolactam] | no cracks detected | 
